We go through 10 sequences from US20120014875.

By UniProt entry, the sequences of proteins in these tests, tags left out. Where a name states a change or a piece, a line headed by the entry shows the natural chain unless it says otherwise.
UniProt Q9UPY3: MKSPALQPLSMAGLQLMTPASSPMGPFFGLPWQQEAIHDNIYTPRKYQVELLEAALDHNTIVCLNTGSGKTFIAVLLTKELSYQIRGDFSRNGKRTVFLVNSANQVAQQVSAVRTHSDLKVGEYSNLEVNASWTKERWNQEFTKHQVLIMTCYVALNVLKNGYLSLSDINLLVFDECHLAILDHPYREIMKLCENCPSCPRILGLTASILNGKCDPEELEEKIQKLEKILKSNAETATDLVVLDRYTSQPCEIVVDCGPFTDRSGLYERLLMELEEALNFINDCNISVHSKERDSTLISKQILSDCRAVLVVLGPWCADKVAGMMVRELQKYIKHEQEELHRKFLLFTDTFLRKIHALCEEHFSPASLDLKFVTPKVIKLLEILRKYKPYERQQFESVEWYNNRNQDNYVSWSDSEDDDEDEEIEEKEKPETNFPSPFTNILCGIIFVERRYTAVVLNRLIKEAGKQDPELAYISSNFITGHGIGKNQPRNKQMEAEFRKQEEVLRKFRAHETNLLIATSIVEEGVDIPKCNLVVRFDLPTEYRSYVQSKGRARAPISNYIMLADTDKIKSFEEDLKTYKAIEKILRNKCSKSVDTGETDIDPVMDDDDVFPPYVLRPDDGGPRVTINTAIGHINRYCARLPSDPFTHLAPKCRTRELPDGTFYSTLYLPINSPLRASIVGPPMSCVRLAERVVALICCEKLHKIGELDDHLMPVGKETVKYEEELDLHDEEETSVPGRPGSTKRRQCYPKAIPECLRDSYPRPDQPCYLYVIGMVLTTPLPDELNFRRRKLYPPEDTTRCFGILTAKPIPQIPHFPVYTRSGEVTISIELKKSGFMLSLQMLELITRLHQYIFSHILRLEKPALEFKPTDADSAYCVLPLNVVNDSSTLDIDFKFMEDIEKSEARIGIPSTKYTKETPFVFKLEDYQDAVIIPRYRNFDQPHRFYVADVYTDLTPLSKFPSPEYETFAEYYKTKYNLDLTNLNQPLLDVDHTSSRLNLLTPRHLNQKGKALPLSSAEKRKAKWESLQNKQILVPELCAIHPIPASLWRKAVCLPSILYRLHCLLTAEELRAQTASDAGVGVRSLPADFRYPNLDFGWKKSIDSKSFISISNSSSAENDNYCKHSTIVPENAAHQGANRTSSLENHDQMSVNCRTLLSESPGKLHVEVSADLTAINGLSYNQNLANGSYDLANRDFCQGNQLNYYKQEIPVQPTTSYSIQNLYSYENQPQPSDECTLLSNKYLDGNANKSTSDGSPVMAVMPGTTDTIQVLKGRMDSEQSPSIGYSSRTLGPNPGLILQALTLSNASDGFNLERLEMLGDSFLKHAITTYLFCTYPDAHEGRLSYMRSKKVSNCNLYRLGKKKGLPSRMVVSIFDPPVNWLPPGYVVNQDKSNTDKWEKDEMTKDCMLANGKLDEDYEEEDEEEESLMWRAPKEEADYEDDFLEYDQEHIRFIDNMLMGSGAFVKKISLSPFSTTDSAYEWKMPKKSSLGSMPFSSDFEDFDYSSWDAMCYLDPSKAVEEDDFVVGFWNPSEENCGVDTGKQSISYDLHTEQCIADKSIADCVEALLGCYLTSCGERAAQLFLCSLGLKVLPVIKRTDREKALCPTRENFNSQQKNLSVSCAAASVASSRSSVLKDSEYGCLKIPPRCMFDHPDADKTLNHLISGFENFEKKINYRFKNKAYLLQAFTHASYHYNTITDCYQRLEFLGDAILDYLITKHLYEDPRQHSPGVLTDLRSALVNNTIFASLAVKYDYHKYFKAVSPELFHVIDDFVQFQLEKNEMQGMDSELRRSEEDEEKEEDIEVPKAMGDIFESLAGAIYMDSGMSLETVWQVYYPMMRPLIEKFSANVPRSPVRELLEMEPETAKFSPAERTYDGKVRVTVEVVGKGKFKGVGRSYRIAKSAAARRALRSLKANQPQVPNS
UniProt Q04609: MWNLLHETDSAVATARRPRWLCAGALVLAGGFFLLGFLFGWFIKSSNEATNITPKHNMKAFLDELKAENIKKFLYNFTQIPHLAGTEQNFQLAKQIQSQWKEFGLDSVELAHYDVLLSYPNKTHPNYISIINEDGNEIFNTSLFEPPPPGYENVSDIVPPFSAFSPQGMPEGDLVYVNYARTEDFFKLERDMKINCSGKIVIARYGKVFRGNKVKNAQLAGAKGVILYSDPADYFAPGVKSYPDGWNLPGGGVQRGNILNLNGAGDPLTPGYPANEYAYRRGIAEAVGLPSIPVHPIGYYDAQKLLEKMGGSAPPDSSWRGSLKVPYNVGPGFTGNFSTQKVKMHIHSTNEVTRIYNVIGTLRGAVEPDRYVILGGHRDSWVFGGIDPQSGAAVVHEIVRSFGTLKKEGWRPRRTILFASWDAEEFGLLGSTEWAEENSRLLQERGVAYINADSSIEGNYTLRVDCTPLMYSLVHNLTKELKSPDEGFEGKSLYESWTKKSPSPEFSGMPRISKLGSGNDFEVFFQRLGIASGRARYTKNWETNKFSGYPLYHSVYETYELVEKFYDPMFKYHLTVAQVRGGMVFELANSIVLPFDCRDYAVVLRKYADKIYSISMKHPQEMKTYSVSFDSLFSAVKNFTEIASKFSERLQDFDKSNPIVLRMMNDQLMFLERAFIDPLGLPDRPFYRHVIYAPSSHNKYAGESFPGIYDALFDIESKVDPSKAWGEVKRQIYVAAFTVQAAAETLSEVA

For part of these data: Results from cells or extracts need not show a direct contact.

The target of data set [1] is Dicer (Homo sapiens) (UniProt Q9UPY3). Kind of data set: enzyme reaction in vitro. The following applies: 37 C, 1-2 h, purified recombinant protein, protein details: recombinant, Genlantis T520002, label: 32P, variant of A10-3.2 (39nt truncation).
Data set [2] deals with PSMA (prostate-specific membrane antigen) (Homo sapiens) (UniProt Q04609). Briefly: binding assay. As to conditions: 37 C, protein on the cell surface, label: 32P.
For data set [3] the target is unchanged. Briefly: flow cytometry. The following applies: 2'-F pyrimidines in both strands, binds 22Rv1(1.7), no binding to PC-3, 37 C, protein on the cell surface, label: fluorescent.
For data set [4] the target is unchanged. Kind of data set: filter binding. The following applies: 2'-F pyrimidines; affinity for LNCaP cells comparable to full-length A10 (0-2 nM RNA, fixed cells, 37 C); specific versus PSMA-negative PC-3 cells; protein on the cell surface; label: 32P; variant of A10 (full-length PSMA aptamer, 71nt).
[5] abbreviates: 2'-F pyrimidines in long strand, short strand unmodified, cleaved to about 21-mer duplex products.
Where [6] appears, read: 2'-F pyrimidines in long strand, short strand unmodified, 32P-RNA binding to LNCaP and 22Rv1(1.7) cells by scintillation, specific versus PC-3, variant of A10-3.2 (39nt truncation).

Consider “GGGAGGACGAUGCGGAUCAGCCAUGUUUACGUCACUCCUAAAAGCACUUGGCAAAGCCGCCCUU / GGGCGGCUUUGCCAAGUGCUU [SWAP chimera]”, for which the “activity on this sequence” value in data set [1] (setting [5]) is on record as “active”. The binding result in data set [2] (setting [6]) is on record as “binds”. Turning to “GGGAGGACGAUGCGGAUCAGCCAUGUUUACGUCACUCCUAAAAGCACUUGGCAAAGCCGCCCUU / GGGCGGCUUUGCCAAGUGCUU [SWAP-2'F chimera]”, the binding result in data set [3] (69% internalization after 0.5 M NaCl wash, variant of SWAP chimera) is reported as “binds”.

Consider “GGGAGGACGAUGCGGAUCAGCCAUGUUUACGUCACUCCU [A10-3.2 (39nt truncation)]”, for which the binding result in data set [4] is “binds”. For “GGGAGGACGAUGCGGAUCAGCCAUGUUUACGUCACUCCUAAAAGGGCGGCUUUGCCAAGUGC / GCACUUGGCAAAGCCGCCCUU [BLUNT chimera]”, the “activity on this sequence” value in data set [1] (setting [5]) is reported as “active”. The binding result in data set [2] (setting [6]) is listed as “binds”. The corresponding values for “GGGAGGACGAUGCGGAUCAGCCAUGUUUACGUCACUCCUAAAAGGGCGGCUUUGCCAAGUGCUU / GCACUUGGCAAAGCCGCCCUU [OVH chimera]” are “active” and “binds”. In the case of “GGGAGGACGAUGCGGAUCAGCCAUGUUUACGUCACUCCUAAAAGCACUUGGCAAAGCCGCCCUU / GGGCGGCUUUGCCAAGUGCUU [SWAP-2'F-PEG chimera]”, the binding result in data set [3] (20 kDa PEG at 5' end of short (passenger) strand, 45% internalization after 0.5 M NaCl wash, variant of SWAP-2'F chimera) is “binds”. In the case of “GGGAGGACGAUGCGGAUCAGCCAUGUUUACGUCACUCCUUGUCAAUCCUCAUCGGCAGACGACUCGCCCGAAAGGGCGGCUUUGCCAAGUGC / GCACUUGGCAAAGCCGCCCUU [A10-Plk1 chimera]”, the binding result in data set [2] (2'-F pyrimidines in long strand, short strand unmodified, 32P-RNA binding to LNCaP and 22Rv1(1.7) cells by scintillation, DPBS with Ca/Mg, specific versus PC-3, variant of A10 (full-length PSMA aptamer, 71nt)) is “binds”.

As for “GGGAGGACGAUGCGGAUCAGCCAUGUUUACGUCACUCCUUGUCAAUCCUCAUCGGCAGACGACUCGCCCGA [A10 (full-length PSMA aptamer, 71nt)]”, the binding result in data set [2] (2'-F pyrimidines, 32P-RNA cell binding (scintillation and filter), LNCaP, DPBS with Ca/Mg, tRNA and poly(I:C) block, specific versus PSMA-negative PC-3 cells) is given as “binds”. As for “GGGCGGCUUUGCCAAGUGCUUGGGAGGACGAUGCGGAUCAGCCAUGUUUACGUCACUCCUAAGCACUUGGCAAAGCCGCCCUU [Stem Loop chimera]”, the “activity on this sequence” value in data set [1] (2'-F pyrimidines, end-labeled Stem Loop RNA cleaved to about 21-mer duplex products) is “active”. Also, the binding result in data set [2] (2'-F pyrimidines, 32P-RNA binding to LNCaP and 22Rv1(1.7) cells by scintillation, specific versus PC-3, variant of A10-3.2 (39nt truncation)) is “binds”.

On to “GGGAGGACGAUGCGGAUCAGCCAUGUUUACGUCACUCCUAAAAGGGCGGCUUUGCCAAGUGUUU / GCACUUGGCAAAGCCGCCCUU [G-U chimera]”, for which the “activity on this sequence” value in data set [1] (setting [5]) is given as “active”. Moreover, the binding result in data set [2] (setting [6]) was “binds”.
